Results: article PMC10653843

Biological target: Myc-Vpu A14L (HIV-1)
Assay: co-IP; two batches of HEK293T cells transfected separately (FLAG-tagged hPSGL-1 WT or T379A; Myc-Vpu or Myc-Vpu A14L), lysates mixed, Vpu precipitated with anti-Myc magnetic beads overnight at 4°C; Western blot

B1: human PSGL-1 (protein, UniProt Q14242 42-412)
chain: QATEYEYLDYDFLPETEPPEMLRNSTDTTPLTGPGTPESTTVEPAARRSTGLDAGGAVTELTTELANMGNLSTDSAAMEIQTTQPAATEAQTTQPVPTEAQTTPLAATEAQTTRLTATEAQTTPLAATEAQTTPPAATEAQTTQPTGLEAQTTAPAAMEAQTTAPAAMEAQTTPPAAMEAQTTQTTAMEAQTTAPEATEAQTTQPTATEAQTTPLAAMEALSTEPSATEALSMEPTTKRGLFIPFSVSSVTHKGIPMAASNLSVNYPVGAPDHISVKQCLLAILILALVATIFFVCTVVLAVRLSRKGHMYPVRNYSPTEMVCISSLLPDGGEGPSATANGGLSKAKSPGLTPEPREDREGDDLTLHSFLP
B1 was tested, and the binding was “binds”.

These are yes or no findings as the source states them, for the method shown. In cells and extracts the contact can be indirect. A result given as binding can be weak or reduced; the word gives no strength.
